From US20170152486A1, “METHOD FOR CULTURE OF HUMAN BLADDER CELL LINES AND ORGANOIDS AND USES THEREOF” (THE TRUSTEES OF COLUMBIA UNIVERSITY IN THE CITY OF NEW YORK, priority 2014, published 2017)
At least one compound was matched to its structure with a doubt left.

Experiments:
Assay in all cases: Drug response (dose titration, CellTiterGlo cell viability) in patient-derived organoids
Type in all cases: cell-based, human
[1] = tested on: SuB2 patient-derived bladder cancer organoid line; settings: FGFR3 mutation, treated for 5 days, preliminary analysis
Method: (§1) Dose response curves are shown for three independent patient-derived organoid lines treated with the indicated compounds. Calculated values for IC50 and area under the curve (AUC) are shown for each combination of organoid line and treatment. Organoids were plated at a concentration of 2,000 cells per well on 96-well plates, and treated for 5 days with the indicated drug concentration, followed by CellTiterGlo assays (Promega) to measure cell viability. Each data point corresponds to three biological replicates; error bars correspond to one standard deviation.
as §1, with “for six” for “for three”
(§2) The response of patient-derived organoids and xenografts to inhibitors of tyrosine kinase receptor signaling pathways can be compared. To establish experimental conditions for these studies, a preliminary analysis of drug response in six independent patient-derived organoid lines has been performed. Dose titration assays were performed to examine the effects of treatment with four different compounds, corresponding to the small molecule MEK1/2 inhibitors trametinib and selumetinib, the ERK1/2 inhibitor SCH772984, and the nucleoside analog gemcitabine, which is a chemotherapy agent commonly used to treat patients with advanced bladder cancer (FIGS. 17-19; FIG. 22; see also FIGS. 29-41). Drug effects upon cell viability were assayed after treatment, and the resulting dose response curves were used to calculate values for IC50 and area under the curve (AUC).

[2] = tested on: MaB19 patient-derived bladder cancer organoid line; settings: activating FGFR3 mutation, treated for 5 days, preliminary analysis
Method: as §1
as §1, with “for six” for “for three”
as §2

[3] = tested on: MaB28 patient-derived bladder cancer organoid line; settings: FGFR3 mutation, treated for 5 days, preliminary analysis
Method: as §1
as §1, with “for six” for “for three”
as §2

[4] = tested on: JuB3 patient-derived bladder cancer organoid line; settings: activating FGFR3 mutation, treated for 5 days, preliminary analysis
Method: as §1
as §1, with “for six” for “for three”
as §2

Row | SMILES | response to treatment (cell viability) [1] | response to treatment (cell viability) [2] | response to treatment (cell viability) [3] | response to treatment (cell viability) [4]
1 | CC(=O)Nc1cccc(-n2c(=O)n(C3CC3)c(=O)c3c(Nc4ccc(I)cc4F)n(C)c(=O)c(C)c32)c1 [trametinib] | do not display a significant response | significant responses | do not display a significant response | significant responses
2 | Cn1cnc2c(F)c(Nc3ccc(Br)cc3Cl)c(C(=O)NOCCO)cc21 [selumetinib] | do not display a significant response | significant responses | do not display a significant response | significant responses
